The list shows only some results of the screen, not a fair sample: it is rich in T/C values a quarter to a half above the control, in often repeated tests (any T/C) and in doses without a T/C. Further doses and runs are listed elsewhere. T/C is the treated group as % of the vehicle group. Some doses have a count of surviving animals in place of a T/C: the source holds a T/C of zero for them, seemingly a mark for toxic or unscored doses. Some survivor counts are full or nearly so, which does not show that the dose was tolerated: survival well below the control is almost never listed, so the zero probably covers shortened survival too. Survivors were counted at the toxicity check, usually on the fifth day, unless a day is given; later deaths do not show. Schedule codes are those of the source, taken here to give the interval after Q, in days (D) or hours (H), and the number of doses after X. Some structures stand for samples that the source files as different forms (salt, stereo form or complex); doses refer to the form tested. Some entries were tested several times; the results are listed from low to high. Where survival is the endpoint, this PubChem deposit counts one and a half times the control or more as active, and values a quarter to a half above the control carry no call in these data; other NCI protocols may use other cut-offs. Some T/C values carry the count of animals alive at the toxicity check (mostly the fifth day); without a count, all were alive then.
System: CD2F1 mice, L1210 leukemia ip, survival T/C
Experiment: NCI In Vivo Anticancer Drug Screen. Data for tumor model L1210 Leukemia (intraperitoneal) in CD2F1 (CDF1) mice
Details: higher T/C = longer survival
How it was run: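 Vehicle-treated tumor-bearing mice served as controls (C) for compound-treated mice (T). Reported figure is T divided by C.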

[1] = T/C endpoint: mean survival time, dose: 200.0 mg/kg/injection, schedule: Q01DX009 (ip), vehicle: saline with Tween-80
[2] = T/C endpoint: median survival time, dose: 166.7 mg/kg/injection, schedule: Q01DX009 (ip), vehicle: water

**Q.** Which results are given for OC(CBr)C(O)C(O)C(O)CBr (stereo not drawn)?
**A.** T/C (T/C endpoint: mean survival time, dose: 200.0 mg/kg/injection, schedule: Q01DX009 (oral), vehicle: other): 130 % of control; T/C (T/C endpoint: mean survival time, dose: 200.0 mg/kg/injection, schedule: Q04DX003 (ip), vehicle: saline): 127 % of control; T/C (T/C endpoint: mean survival time, dose: 300.0 mg/kg/injection, schedule: Q04DX003 (ip), vehicle: Klucel (hydroxypropylcellulose) (HPC)): 140 % of control; T/C (T/C endpoint: mean survival time, dose: 300.0 mg/kg/injection, schedule: Q04DX003 (ip), vehicle: saline): 127 % of control; T/C (T/C endpoint: mean survival time, dose: 400.0 mg/kg/injection, schedule: Q04DX003 (ip), vehicle: Klucel (hydroxypropylcellulose) (HPC)): 132 % of control; survivor count (T/C endpoint: mean survival time, dose: 800.0 mg/kg/injection, schedule: Q01DX009 (oral), vehicle: other): 6 of 6; survivor count (T/C endpoint: median survival time, dose: 64.0 mg/kg/injection, schedule: Q03HX008 (ip), vehicle: Klucel (hydroxypropylcellulose) (HPC)): 10 of 10; survivor count (T/C endpoint: median survival time, dose: 64.0 mg/kg/injection, schedule: Q03HX016 (ip), vehicle: Klucel (hydroxypropylcellulose) (HPC)): 10 of 10; survivor count (T/C endpoint: median survival time, dose: 64.0 mg/kg/injection, schedule: Q03HX024 (ip), vehicle: Klucel (hydroxypropylcellulose) (HPC)): 10 of 10; T/C (T/C endpoint: median survival time, dose: 80.0 mg/kg/injection, schedule: Q01DX005 (ip), vehicle: Klucel (hydroxypropylcellulose) (HPC), evaluated on day 30): 135 % of control; T/C (T/C endpoint: median survival time, dose: 80.0 mg/kg/injection, schedule: Q01DX005 (ip), vehicle: Klucel (hydroxypropylcellulose) (HPC), evaluated on day 45): 132 and 134 % of control [9 of 10 alive]; survivor count (T/C endpoint: median survival time, dose: 128.0 mg/kg/injection, schedule: Q03HX008 (ip), vehicle: Klucel (hydroxypropylcellulose) (HPC)): 7 of 10; survivor count (T/C endpoint: median survival time, dose: 128.0 mg/kg/injection, schedule: Q03HX016 (ip), vehicle: Klucel (hydroxypropylcellulose) (HPC)): 4 of 10; survivor count (T/C endpoint: median survival time, dose: 128.0 mg/kg/injection, schedule: Q03HX024 (ip), vehicle: Klucel (hydroxypropylcellulose) (HPC)): 4 of 10; T/C (T/C endpoint: median survival time, dose: 200.0 mg/kg/injection, schedule: Q04DX003 (ip), vehicle: Klucel (hydroxypropylcellulose) (HPC)): 125 and 141 % of control [9 of 10 alive]; survivor count (T/C endpoint: median survival time, dose: 256.0 mg/kg/injection, schedule: Q01DX009 (ip), vehicle: Klucel (hydroxypropylcellulose) (HPC)): 10 of 10; survivor count (T/C endpoint: median survival time, dose: 256.0 mg/kg/injection, schedule: Q03HX008 (ip), vehicle: Klucel (hydroxypropylcellulose) (HPC)): 2 of 10; survivor count (T/C endpoint: median survival time, dose: 256.0 mg/kg/injection, schedule: Q03HX016 (ip), vehicle: Klucel (hydroxypropylcellulose) (HPC)): 3 of 10; survivor count (T/C endpoint: median survival time, dose: 512.0 mg/kg/injection, schedule: Q01DX009 (ip), vehicle: Klucel (hydroxypropylcellulose) (HPC)): 9 of 10; survivor count (T/C endpoint: median survival time, dose: 1024.0 mg/kg/injection, schedule: Q01DX001 (ip), vehicle: Klucel (hydroxypropylcellulose) (HPC)): 7 of 10; survivor count (T/C endpoint: median survival time, dose: 1024.0 mg/kg/injection, schedule: Q04DX003 (ip), vehicle: Klucel (hydroxypropylcellulose) (HPC)): 8 of 10; survivor count (T/C endpoint: median survival time, dose: 1024.0 mg/kg/injection, schedule: Q08DX002 (ip), vehicle: Klucel (hydroxypropylcellulose) (HPC)): 8 of 10; survivor count (T/C endpoint: median survival time, dose: 2048.0 mg/kg/injection, schedule: Q01DX001 (ip), vehicle: Klucel (hydroxypropylcellulose) (HPC)): 7 of 10; survivor count (T/C endpoint: median survival time, dose: 2048.0 mg/kg/injection, schedule: Q08DX002 (ip), vehicle: Klucel (hydroxypropylcellulose) (HPC)): 6 of 10

**Q.** COc1cc(C(C)=O)cc([N+](=O)[O-])c1O was tested. Which survivor count [1] did it give?
**A.** Its survivor count is 3 of 6.

**Q.** For c1ccc2c(c1)CC1CCCCN1C2 (stereo not drawn), which survivor count (T/C endpoint: mean survival time, dose: 100.0 mg/kg/injection, schedule: Q01DX001 (ip), vehicle: Klucel (hydroxypropylcellulose) (HPC)) is on record?
**A.** Its survivor count is 1 of 6.

**Q.** And the survivor count (T/C endpoint: mean survival time, dose: 200.0 mg/kg/injection, schedule: Q01DX001 (ip), vehicle: Klucel (hydroxypropylcellulose) (HPC))?
**A.** The survivor count was 2 of 6.

**Q.** What about the survivor count (T/C endpoint: mean survival time, dose: 400.0 mg/kg/injection, schedule: Q01DX001 (ip), vehicle: Klucel (hydroxypropylcellulose) (HPC)) of the same molecule?
**A.** The survivor count was 0 of 6.

**Q.** Which results are given for CCS/C(SC)=C(/c1ccccc1)[P+](c1ccccc1)(c1ccccc1)c1ccccc1?
**A.** survivor count (T/C endpoint: median survival time, dose: 6.0 mg/kg/injection, schedule: Q01DX009 (ip), vehicle: Klucel (hydroxypropylcellulose) (HPC)): 3 of 6; survivor count (T/C endpoint: median survival time, dose: 12.0 mg/kg/injection, schedule: Q01DX009 (ip), vehicle: Klucel (hydroxypropylcellulose) (HPC)): 0 of 6; survivor count (T/C endpoint: median survival time, dose: 24.0 mg/kg/injection, schedule: Q01DX009 (ip), vehicle: Klucel (hydroxypropylcellulose) (HPC)): 0 of 6

**Q.** For CCCCNC(C)(C)C(SSSC(c1cccs1)C(C)(C)NCCCC)c1cccs1 (stereo not drawn), which survivor count (T/C endpoint: mean survival time, dose: 400.0 mg/kg/injection, schedule: Q01DX009 (ip), vehicle: saline sonified) is on record?
**A.** Its survivor count is 4 of 6.

**Q.** What does the source list for CC1(C)C2(C)CC12C (stereo not drawn)?
**A.** survivor count (T/C endpoint: median survival time, dose: 50.0 mg/kg/injection, schedule: Q04DX002 (ip), vehicle: saline with Tween-80): 0 of 3; survivor count (T/C endpoint: median survival time, dose: 100.0 mg/kg/injection, schedule: Q04DX002 (ip), vehicle: saline with Tween-80): 0 of 3; survivor count (T/C endpoint: median survival time, dose: 200.0 mg/kg/injection, schedule: Q04DX002 (ip), vehicle: saline with Tween-80): 0 of 3; survivor count (T/C endpoint: median survival time, dose: 400.0 mg/kg/injection, schedule: Q04DX002 (ip), vehicle: saline with Tween-80): 0 of 3

**Q.** For c1cc2[nH]c3ccncc3c2cn1, which survivor count (T/C endpoint: mean survival time, dose: 200.0 mg/kg/injection, schedule: Q01DX009 (ip), vehicle: saline sonified) is on record?
**A.** Its survivor count is 0 of 6.

**Q.** How did the survivor count (T/C endpoint: mean survival time, dose: 200.0 mg/kg/injection, schedule: Q01DX009 (ip), vehicle: saline) turn out when Oc1ccccc1Cn1ccnc1 was run?
**A.** Its survivor count is 6 of 6.

**Q.** What about the survivor count (T/C endpoint: mean survival time, dose: 400.0 mg/kg/injection, schedule: Q01DX009 (ip), vehicle: saline) of the same molecule?
**A.** Its survivor count is 0 of 6.

**Q.** What does the source list for CN1CCN(CN2C(=O)C3C4C=CC(C3C2=O)C2C3C(=O)N(CN5CCN(C)CC5)C(=O)C3C42)CC1 (stereo not drawn)?
**A.** T/C (T/C endpoint: median survival time, dose: 13.8 mg/kg/injection, schedule: Q03HX027 (ip), vehicle: water): 126 % of control; T/C (T/C endpoint: median survival time, dose: 20.0 mg/kg/injection, schedule: Q03HX027 (ip), vehicle: water): 132 % of control; T/C (T/C endpoint: median survival time, dose: 21.6 mg/kg/injection, schedule: Q01DX009 (ip), vehicle: water): 103, 104, 109, 116 % of control; T/C (T/C endpoint: median survival time, dose: 23.0 mg/kg/injection, schedule: Q03HX027 (ip), vehicle: water): 141 % of control; T/C (T/C endpoint: median survival time, dose: 36.0 mg/kg/injection, schedule: Q01DX009 (ip), vehicle: water): 105, 109, 112, 136 % of control; T/C (T/C endpoint: median survival time, dose: 41.3 mg/kg/injection, schedule: Q01DX009 (ip), vehicle: water): 134 and 147 % of control; T/C (T/C endpoint: median survival time, dose: 60.0 mg/kg/injection, schedule: Q01DX009 (ip), vehicle: water): 137, 146, 175, 273 % of control; survivor count (T/C endpoint: median survival time, dose: 63.9 mg/kg/injection, schedule: Q03HX027 (ip), vehicle: water): 5 of 6; survivor count (T/C endpoint: median survival time, dose: 92.9 mg/kg/injection, schedule: Q03HX027 (ip), vehicle: water): 2 of 6; T/C (T/C endpoint: median survival time, dose: 100.0 mg/kg/injection, schedule: Q01DX009 (ip), vehicle: water): 92 [5 of 6 alive], 137, 195, 241 % of control; survivor count (T/C endpoint: median survival time, dose: 106.6 mg/kg/injection, schedule: Q03HX027 (ip), vehicle: water): 0 of 6; survivor count (T/C endpoint: median survival time, dose: 124.0 mg/kg/injection, schedule: Q01DX009 (ip), vehicle: water): 5 of 6; T/C [2]: 256 % of control; survivor count [2]: 0 of 6 and 4 of 6; survivor count (T/C endpoint: median survival time, dose: 191.2 mg/kg/injection, schedule: Q01DX009 (ip), vehicle: water): 0 of 6 and 1 of 6; survivor count (T/C endpoint: median survival time, dose: 268.7 mg/kg/injection, schedule: Q01DX009 (ip), vehicle: water): 0 of 6; survivor count (T/C endpoint: median survival time, dose: 277.8 mg/kg/injection, schedule: Q01DX009 (ip), vehicle: water): 0 of 6

**Q.** Which results are given for CCCN(CCC)N=Nc1c(C(=O)OC)n[nH]c1C?
**A.** survivor count [1]: 3 of 6; survivor count (T/C endpoint: mean survival time, dose: 266.0 mg/kg/injection, schedule: Q01DX009 (ip), vehicle: saline with Tween-80): 6 of 6; survivor count (T/C endpoint: mean survival time, dose: 400.0 mg/kg/injection, schedule: Q01DX009 (ip), vehicle: saline with Tween-80): 0 of 6 and 1 of 6

**Q.** Which survivor count (T/C endpoint: mean survival time, dose: 400.0 mg/kg/injection, schedule: Q01DX009 (ip), vehicle: other) does the source give for COc1ccc(OC)c(NC(=O)N2CCCC(C)C2)c1 (stereo not drawn) here?
**A.** The survivor count was 6 of 6.

**Q.** For CC(C)(C)C1=CC(=N/S(=O)(=O)c2ccccc2)/C(N=[N+]=[N-])=C(Cl)C/1=N\S(=O)(=O)c1ccccc1, which survivor count (T/C endpoint: mean survival time, dose: 100.0 mg/kg/injection, schedule: Q01DX001 (ip), vehicle: saline with Tween-80) is on record?
**A.** The survivor count was 3 of 3.

**Q.** Which results are given for Cc1csc(C)[n+]1C?
**A.** survivor count (T/C endpoint: mean survival time, dose: 200.0 mg/kg/injection, schedule: Q01DX001 (ip), vehicle: saline with Tween-80): 3 of 6; survivor count (T/C endpoint: mean survival time, dose: 400.0 mg/kg/injection, schedule: Q01DX001 (ip), vehicle: saline with Tween-80): 0 of 6

Reference: PubChem BioAssay AID256 (DTP/NCI, 2004)
